No constants are given. Whether binding was seen depends on the method and setting. Binding seen in cells or lysates may run through a third protein. Some results given as binding are weak or reduced against the parent protein; the word gives no strength.
Target: T1, Mcm3 (X. laevis (endogenous in egg extract)) (UniProt P49739)
T1 sequence: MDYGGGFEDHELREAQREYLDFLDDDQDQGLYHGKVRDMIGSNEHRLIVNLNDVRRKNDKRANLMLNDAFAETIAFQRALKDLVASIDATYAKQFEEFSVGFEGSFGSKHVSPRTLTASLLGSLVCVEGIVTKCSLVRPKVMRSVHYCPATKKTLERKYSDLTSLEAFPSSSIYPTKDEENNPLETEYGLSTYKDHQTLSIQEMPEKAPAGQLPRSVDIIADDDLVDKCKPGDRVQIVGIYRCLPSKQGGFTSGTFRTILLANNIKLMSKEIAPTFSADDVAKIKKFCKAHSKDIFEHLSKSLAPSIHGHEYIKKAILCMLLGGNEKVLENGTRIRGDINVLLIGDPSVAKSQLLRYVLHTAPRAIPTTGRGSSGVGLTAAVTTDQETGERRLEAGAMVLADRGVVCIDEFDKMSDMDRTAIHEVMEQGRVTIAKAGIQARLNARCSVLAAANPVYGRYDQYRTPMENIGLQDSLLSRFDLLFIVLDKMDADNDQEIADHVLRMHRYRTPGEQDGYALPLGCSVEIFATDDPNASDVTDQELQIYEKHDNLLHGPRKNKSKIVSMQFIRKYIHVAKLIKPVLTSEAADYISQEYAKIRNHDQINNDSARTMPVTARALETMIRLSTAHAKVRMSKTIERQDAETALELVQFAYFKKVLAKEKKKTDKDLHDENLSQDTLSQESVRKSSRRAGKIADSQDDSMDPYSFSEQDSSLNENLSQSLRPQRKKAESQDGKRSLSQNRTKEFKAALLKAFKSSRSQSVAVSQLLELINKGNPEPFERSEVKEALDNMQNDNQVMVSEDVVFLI
Assay: co-IP; small proportion of the material of the mitotic Mcm3 immunoprecipitation analysed by Western blotting

B1: TRAIP ubiquitin ligase (protein, UniProt Q6NRV0 1-464)
chain: MPIRAYCTICSDFFDNARDVAAITCGHTFHQECLLQWFHSAPHRTCPQCRIQVSSRQIINKLFFDIGGEEETVLDAESLKNEVDRIKASLLVKEKEKRECQGLVDSLREMLDVRNVTIQSQQKELGDMEMLCSTLKKQIKFLDKQQSETKAAKDEARKLRNKLKTMESIEVLLQSQRSEVEEMIRDMGSGQAAVEQLAIYCVSLKKEYENLKEVRKSSAEMTEKLRKELFSSNHKAQKAELELTKVREELSASQKELHSADKEIMSLKKKVEFLQKTLTTPTASNEAISRLIFESPAPIGLERPKLRPPMMGNDINLDVTFDIDTPEHNTQKSVVAPFKKMKFDNKEHPLSSPTKNPLQESKGLMSWAGGRTGADEDDDLTLPSFIKNSLLHKKPVGSLLGLRQNTGAVRTGFDGLGGRTKFIQPSNLTEIRPLHQKMKRKKVSRPTACTSSLANQPRLEDFLK
binding: binds
